Assay results reported in patent publication US6770458.
Where a chain is given by its changes, count along the chain named. No constants are given. Whether binding was seen depends on the method and setting. For some assays here: Binding seen in cells or lysates may run through a third protein. Some results given as binding are weak or reduced against the parent protein; the word gives no strength. Sequences can lack the tags named with a protein. Values belong to the binder of their own block, whether it stands above or below them.

Protein sequences, listed by entry. Tags and fused reporters are not part of them. Residues count along the entry.
UniProt P37173, residues 23-567: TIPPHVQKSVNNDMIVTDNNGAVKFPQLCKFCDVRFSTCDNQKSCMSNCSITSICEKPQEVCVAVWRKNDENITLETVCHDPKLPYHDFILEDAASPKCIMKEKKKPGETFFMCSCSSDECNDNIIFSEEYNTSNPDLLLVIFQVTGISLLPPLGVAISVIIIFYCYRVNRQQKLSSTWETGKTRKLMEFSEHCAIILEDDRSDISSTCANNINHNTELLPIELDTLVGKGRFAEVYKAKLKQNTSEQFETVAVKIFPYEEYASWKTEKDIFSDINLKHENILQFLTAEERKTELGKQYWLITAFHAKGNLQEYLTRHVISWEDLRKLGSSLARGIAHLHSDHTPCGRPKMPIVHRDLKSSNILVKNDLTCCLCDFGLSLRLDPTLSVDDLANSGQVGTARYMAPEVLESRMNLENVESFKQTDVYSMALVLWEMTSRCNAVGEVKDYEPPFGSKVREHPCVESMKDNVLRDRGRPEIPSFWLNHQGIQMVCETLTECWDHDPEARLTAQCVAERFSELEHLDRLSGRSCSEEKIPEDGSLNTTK

Key:
[1] = biological target: T1, TβR-I(TD)-HA, constitutively active TβR-I T204D (UniProt P36897); test: sequential immunoprecipitation (restated in the discussion)
T1 sequence (looked up): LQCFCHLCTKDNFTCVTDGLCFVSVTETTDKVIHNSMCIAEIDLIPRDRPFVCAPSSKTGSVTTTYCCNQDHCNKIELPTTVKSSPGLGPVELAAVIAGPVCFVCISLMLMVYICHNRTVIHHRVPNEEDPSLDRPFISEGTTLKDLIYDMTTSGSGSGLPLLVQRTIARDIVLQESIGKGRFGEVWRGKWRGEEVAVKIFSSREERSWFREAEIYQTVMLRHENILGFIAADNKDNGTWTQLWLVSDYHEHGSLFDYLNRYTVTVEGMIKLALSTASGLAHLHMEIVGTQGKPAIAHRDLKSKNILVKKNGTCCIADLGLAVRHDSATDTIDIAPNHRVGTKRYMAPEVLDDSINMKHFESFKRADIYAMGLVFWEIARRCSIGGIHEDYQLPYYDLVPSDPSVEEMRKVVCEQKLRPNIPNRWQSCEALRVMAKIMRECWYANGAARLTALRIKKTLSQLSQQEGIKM

[2] = biological target: T1, TβR-I(TD)-HA, constitutively active TβR-I T204D; test: sequential immunoprecipitation (anti-Flag, Flag peptide elution, anti-Myc), anti-HA blot
STRAP-HA (mouse) [3] = biological target: T2, STRAP-HA (mouse) (UniProt Q9Z1Z2); test: co-immunoprecipitation and immunoblot, transfected cells
T2 sequence: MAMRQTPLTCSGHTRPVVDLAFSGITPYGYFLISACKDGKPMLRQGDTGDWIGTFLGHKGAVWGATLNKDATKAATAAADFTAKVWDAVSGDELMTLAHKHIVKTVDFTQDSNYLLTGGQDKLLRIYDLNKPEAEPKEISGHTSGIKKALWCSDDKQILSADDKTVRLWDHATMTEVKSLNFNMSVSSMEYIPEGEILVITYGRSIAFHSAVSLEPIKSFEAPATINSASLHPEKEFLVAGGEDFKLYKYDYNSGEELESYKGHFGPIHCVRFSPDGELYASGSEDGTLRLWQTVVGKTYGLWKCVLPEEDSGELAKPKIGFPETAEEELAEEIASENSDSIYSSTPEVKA

[4] = biological target: T3, HA-tagged wild type TβR-I (transforming growth factor β receptor I) (UniProt P36897); test: co-immunoprecipitation and immunoblot, COS-1 cells, with or without TGF-β1 (240 pM)
T3 sequence (looked up): T1 sequence (looked up) with D171T

[5] = biological target: HA-tagged TβR-II (transforming growth factor β receptor II) (UniProt P37173); test: as above
[6] = biological target: T1, TβR-I(TD)-HA, constitutively active TβR-I T204D; test: sequential immunoprecipitation (anti-Flag, Flag peptide elution, anti-Myc), anti-HA blot, COS-1 cells
[7] = biological target: T3, HA-tagged wild type TβR-I (transforming growth factor β receptor I); test: co-immunoprecipitation and immunoblot, transfected COS-1 cells
[8] = biological target: HA-tagged TβR-II (transforming growth factor β receptor II) (UniProt P37173); test: as above
[9] = biological target: T1, TβR-I(TD)-HA, constitutively active TβR-I T204D; test: as above
[10] = biological target: T4, HA-tagged TβR-I K232R (kinase negative) (UniProt P36897); test: as above
T4 sequence (looked up): T1 sequence (looked up) with D171T, K199R

STRAP-HA (mouse) [11] = biological target: T2, STRAP-HA (mouse); test: as above
[12] = biological target: T3, HA-tagged wild type TβR-I (transforming growth factor β receptor I); test: co-immunoprecipitation (restated in the discussion)
[13] = biological target: HA-tagged TβR-II (transforming growth factor β receptor II) (UniProt P37173); test: as above
STRAP-HA (mouse) [14] = biological target: T2, STRAP-HA (mouse); test: as above
[15] = biological target: T3, HA-tagged wild type TβR-I (transforming growth factor β receptor I); test: affinity crosslinking with 125I-TGF-β1, anti-Flag immunoprecipitation, COS-1 cells
[16] = biological target: hexahistidine-tagged TβR-II (UniProt P37173); test: as above
TβR-II-Flag = TβR-II-Flag (UniProt P37173); test: anti-Flag immunoprecipitation, anti-HA blot, transfected COS-1 cells

binding [1]: binds
binding [2]: binds
binding (STRAP-HA (mouse) [3]): binds
binding [4]: binds
binding [5]: binds
binding [6]: binds
binding [7]: binds
binding [8]: binds
binding [9]: binds
binding [10]: binds
binding (STRAP-HA (mouse) [11]): binds
binding [12]: binds
binding [13]: binds
binding (STRAP-HA (mouse) [14]): binds
binding [15]: binds
binding [16]: binds
B1: STRAP-Flag (protein, not shown: small tags and cut ends)
chain: T2 sequence

binding (TβR-II-Flag): binds
B2: STRAP-HA (protein, not shown: small tags and cut ends)
chain: T2 sequence
